Results are given in words; binding and its absence hold for the method and conditions named.

Sequences of proteins named here, by UniProt entry; tags and fusion partners are left off. A change or cut given only in a name is not applied to a line headed by its entry.
UniProt Q13641: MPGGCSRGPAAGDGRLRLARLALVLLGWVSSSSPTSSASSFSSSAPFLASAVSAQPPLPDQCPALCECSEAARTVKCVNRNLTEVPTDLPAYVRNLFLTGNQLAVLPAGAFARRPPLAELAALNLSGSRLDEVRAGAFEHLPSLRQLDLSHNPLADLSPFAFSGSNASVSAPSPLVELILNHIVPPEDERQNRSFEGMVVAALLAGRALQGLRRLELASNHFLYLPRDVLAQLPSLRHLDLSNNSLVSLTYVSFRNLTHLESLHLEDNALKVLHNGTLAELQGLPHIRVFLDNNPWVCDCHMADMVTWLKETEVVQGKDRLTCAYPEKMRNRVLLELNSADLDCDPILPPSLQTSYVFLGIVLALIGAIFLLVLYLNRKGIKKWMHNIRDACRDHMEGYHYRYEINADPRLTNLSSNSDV
UniProt Q4R8Y9: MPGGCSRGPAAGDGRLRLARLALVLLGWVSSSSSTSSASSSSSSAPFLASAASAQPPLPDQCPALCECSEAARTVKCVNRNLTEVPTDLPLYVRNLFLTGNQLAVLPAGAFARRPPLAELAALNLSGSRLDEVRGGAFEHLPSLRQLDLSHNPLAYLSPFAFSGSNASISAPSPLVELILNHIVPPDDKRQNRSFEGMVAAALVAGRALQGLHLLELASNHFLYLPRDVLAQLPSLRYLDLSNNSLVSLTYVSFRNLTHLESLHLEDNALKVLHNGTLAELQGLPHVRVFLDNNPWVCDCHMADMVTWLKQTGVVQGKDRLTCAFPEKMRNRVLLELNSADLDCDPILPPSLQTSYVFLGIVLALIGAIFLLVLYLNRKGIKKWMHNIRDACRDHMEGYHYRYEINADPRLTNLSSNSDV

This is an account of results in US20200277397A1.

Experiment [1] deals with full length human 5T4 (human) (UniProt Q13641). The experiment is described as follows: flow cytometry, HeLa and MDA-MB-231 cells.
Experiment [2] shares this target. The experiment is described as follows: flow cytometry, HEK-293 transfected with human 5T4. (A flow cytometer gives signals particle by particle.)
Experiment [3] shares this target. The experiment is described as follows: flow cytometry, HEK-293 transfected with human 5T4. The source holds these as a separate data set.
The target in experiment [4] is T1, full length chicken 5T4 (chicken).
T1 sequence: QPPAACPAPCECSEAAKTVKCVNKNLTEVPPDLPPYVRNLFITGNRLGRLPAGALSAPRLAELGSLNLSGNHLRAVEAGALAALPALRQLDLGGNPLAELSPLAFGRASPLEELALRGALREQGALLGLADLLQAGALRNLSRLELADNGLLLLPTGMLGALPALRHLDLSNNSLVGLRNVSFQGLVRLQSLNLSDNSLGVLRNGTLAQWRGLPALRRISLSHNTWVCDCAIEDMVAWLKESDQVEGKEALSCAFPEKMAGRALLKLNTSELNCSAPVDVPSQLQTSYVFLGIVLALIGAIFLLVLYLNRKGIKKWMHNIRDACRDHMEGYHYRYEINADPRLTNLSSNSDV
The experiment is described as follows: flow cytometry, HEK-293 transfected with chicken 5T4.

Experiment [5] concerns the target full length cynomolgus monkey 5T4 (cynomolgus monkey) (UniProt Q4R8Y9). The experiment is described as follows: flow cytometry, HEK-293 transfected with cynomolgus monkey 5T4.
The target in experiment [6] is full length human 5T4 (human) (UniProt Q13641). The experiment is described as follows: flow cytometry, HeLa cells (left panel), FITC anti-human IgG F(ab')2, MFI FITC.
Experiment [7] shares this target. The experiment is described as follows: flow cytometry, MDA-MB-231 cells (right panel), FITC anti-human IgG F(ab')2, MFI FITC.
Experiment [8] has the same target. The experiment is described as follows: flow cytometry, HEK-293 cells transfected with full length human 5T4, PE anti-human IgG F(ab')2, MFI PE.
The target of experiment [9] is T1, full length chicken 5T4 (chicken). The experiment is described as follows: flow cytometry, HEK-293 cells transfected with full length chicken 5T4, PE anti-human IgG F(ab')2, MFI PE.
Experiment [10] deals with full length human 5T4 (human) (UniProt Q13641). The experiment is described as follows: flow cytometry, HEK-293 cells transfected with full length human 5T4 (left panel), FITC anti-human IgG F(ab')2, MFI FITC.
Experiment [11] deals with full length cynomolgus monkey 5T4 (cynomolgus monkey) (UniProt Q4R8Y9). The experiment is described as follows: flow cytometry, HEK-293 cells transfected with full length cynomolgus monkey 5T4 (right panel), FITC anti-human IgG F(ab')2, MFI FITC.

B1: IgG1-b12-K409R (antibody, V domains shown)
VH: QVQLVQSGAEVKKPGASVKVSCQASGYRFSNFVIHWVRQAPGQRFEWMGWINPYNGNKEFSAKFQDRVTFTADTSANTAYMELRSLRSADTAVYYCARVGPYSWDDSPQDNYYMDVWGKGTTVIVSS
VL: EIVLTQSPGTLSLSPGERATFSCRSSHSIRSRRVAWYQHKPGQAPRLVIHGVSNRASGISDRFSGSGSGTDFTLTITRVEPEDFALYYCQVYGASSYTFGQGTKLERK
As to B1, the binding entry is “no binding (tested: 3 µg/mL)” in experiment [1]; “no binding (tested: 10 µg/mL)” in [2]; “no binding (tested: 3 µg/mL)” in experiment [3]; “no binding (tested: 10 µg/mL)” in [4]; “no binding (tested: 3 µg/mL)” in experiment [5]; “no binding (tested: 3 µg/ml)” in experiment [6]. Also, the binding entry in [7] is “no binding (tested: 3 µg/ml)”; in experiment [8] it was “no binding (tested: 10 µg/ml)”; in experiment [9] it was “no binding (tested: 10 µg/ml)”; in [10] it was “no binding (tested: 3 µg/ml)”; in experiment [11], “no binding (tested: 3 µg/ml)”.
